From article PMC12040169 (PLOS Biology, 2025) come the findings set out here.

This is one part of the list.

The assay relates to T1, CTL2-GFP (C. trachomatis L2/434/Bu, GFP-expressing).
T1 construct: L2/434/Bu, GFP-expressing
Further details: species or system HeLa; Intracellular C. trachomatis growth in HeLa cells, bulk GFP fluorescence relative to DMSO. Conditions: bulk GFP, single well; 28.5 h, 10 µM; inhibitor.
For `CNC(=O)c1ccc(-c2cc(OC)c(OC)c(OC)c2)nc1NCCOC` [CBK105997], the “% of control remaining” value is given as 159.679%.

On to `O=[N+]([O-])c1ccc(CN2C[C@H](O)C[C@H]2c2nc(-c3ccccc3)no2)cc1` [CBK288833], for which the “% of control remaining” value stood at 117.583%. For `Cc1ccn2c(NS(=O)(=O)c3ccc(CCC(=O)O)cc3)c(-c3cccs3)nc2c1` [CBK297480], the “% of control remaining” value was determined as 97.1711%.

Regarding `COc1ccc(-c2cc(Nc3ccc(N(C)C)cc3)ncn2)cc1OC` [CBK036969], the “% of control remaining” value is 104.822%. For the compound `Cc1cc(C)nc(NC2=NC(=O)CC(C(=O)O)N2c2ccc(Cl)cc2Cl)n1` (stereo not shown) [CBK286968], the “% of control remaining” value was 141.503%. As to `O=C(Cc1ccsc1)N1C[C@@H]2CCCCN(CC3CC3)[C@@H]2C1` [CBK285507], the “% of control remaining” value is 106.327%. `NC1CCC(Nc2cncc(-c3ccc(F)c(Cl)c3)n2)CC1` (stereo not shown) [CBK037893]: the “% of control remaining” value is 79.7322%. With `COc1cc(CN2CCCCC2CO)c([N+](=O)[O-])cc1OC` (stereo not shown) [CBK261730], the “% of control remaining” value was found to be 118.661%. For `COc1ccc(CCN(CCc2ccccc2)CC(O)COc2cccc3c2CCCC3)cc1` (stereo not shown) [CBK024506T], the “% of control remaining” value is 49.0199%. In the case of `COc1ccccc1NC(=O)c1sc2ncn(CC(=O)NC3CCCCC3)c(=O)c2c1C` [CBK265788] it was 144.352%; in that of `CC(=O)Nc1ccc(Nc2cc(-c3ccc(CC(C)C)cc3)ncn2)cc1` [CBK090723], 151.739%. As for `Cc1cc(F)c(S(N)(=O)=O)cc1NC(=O)c1ccc(CN2CCOCC2)o1` [CBK059376C], the “% of control remaining” value came to 128.398%. To `CC(C)Cn1cncc1CNC(=O)Nc1ccc2c(cnn2C)c1` [CBK307405] belongs 114.685%; to `Clc1ccccc1-c1nccnc1NCc1cccs1` [CBK037362], 185.873%; to `Cc1nc(CCC(=O)N2Cc3cnn(Cc4ccc(F)cc4)c3C2)n[nH]1` [CBK306993], 96.3452%.

Take `Cc1cc(Cl)cc(Cl)c1S(=O)(=O)Nc1nc2c(s1)C(=O)CC(C)(C)C2` [CBK200034]: the “% of control remaining” value was 105.081%. Take `COC(=O)c1cc(C#N)c(=O)n(CC(O)COc2ccccc2)c1` (stereo not shown) [CBK304991]: the “% of control remaining” value was determined as 108.654%. In the case of `COc1ccc(CNC(=O)CSc2cnn[nH]2)cc1` [CBK269881], the “% of control remaining” value was 122.462%. Consider `O=C(NCCn1nc(-c2cccs2)ccc1=O)c1ccco1` [CBK283838], for which the “% of control remaining” value amounted to 102.457%.

Take `CN(Cc1ccc2c(c1)OCCO2)C(=O)CSc1n[nH]c(=O)n1Cc1ccccc1` [CBK297876]: the “% of control remaining” value is 133.753%.

Turning to `COc1ccc(Nc2ccc(-c3ccsc3)cn2)c(C)c1` [CBK036855], the “% of control remaining” value worked out at 84.4393%.

`CC1SC2(C(=O)Nc3ccccc32)N(c2ccc(F)cc2)C1=O` (stereo not shown) [CBK093463]: the “% of control remaining” value is on record as 119.694%. Take `COc1cccc(C2(C(=O)N3CCc4nc[nH]c(=O)c4C3)CC2)c1` [CBK304488]: the “% of control remaining” value came to 154.085%. In the case of `O=C(c1cscn1)N1CCCc2ccccc21` [CBK200348] it was 96.3789%; in that of `O=C(Nc1ccc(-c2nnc(-c3ccco3)o2)cc1)C(c1ccccc1)c1ccccc1` [CBK263452], 100%; in that of `O=C1CCC(=O)N1CCOc1nccnc1N1CCN(Cc2ccc([N+](=O)[O-])cc2)CC1` [CBK084294], 119.987%.

Regarding `COc1ccc(-c2cn(-c3cccc(NC(C)=O)c3)nn2)cc1` [CBK113008], the “% of control remaining” value was found to be 176.987%. To `Cc1nc2c(c(=O)[nH]1)CCN(Cc1cc(C)n(C3CC3)c1C)C2` [CBK282338] belongs 110.856%.

`Nc1nc2n(c1C(=O)c1ccc(Cl)cc1)CCC2` [CBK288194]: the “% of control remaining” value stood at 152.137%. Regarding `Cn1ncc2c1CCCN(C(=O)c1ccccc1C(F)(F)F)C2` [CBK282251], the “% of control remaining” value was 142.444%.

Take `FC(F)(F)c1ccc(Oc2ccc(-c3noc(-c4cccnc4)n3)cc2)nc1` [CBK270166]: the “% of control remaining” value is on record as 119.841%. For the compound `COc1cc(/C=C2/NC(=O)N(c3ccccc3)C2=O)ccc1OCc1ccc(C(=O)O)cc1` [CBK265139], the “% of control remaining” value was determined as 100%. Turning to `COc1ccc(C(NC(=O)C2CCN(C(=O)Oc3ccccc3)CC2)c2ccccc2C)cn1` (stereo not shown) [CBK059715], the “% of control remaining” value worked out at 123.613%. In the case of `O=C(CN1CCCCC1)NCCNc1ccc([N+](=O)[O-])cc1Cl` [CBK264922], the “% of control remaining” value is recorded as 100%.

Turning to `COc1ccc(CC(=O)N2CCCC(c3cccc(Cc4cccc(C)c4)n3)C2)cc1` (stereo not shown) [CBK286498], the “% of control remaining” value came out at 81.6989%. `Cc1ccc(OCC(=O)Nc2cccnc2)c(-n2nc3ccccc3n2)c1` [CBK270281]: the “% of control remaining” value turned out to be 159.711%.

For `O=S(=O)(Nc1nccs1)c1ccc(Nc2ncnc3ccccc23)cc1` [CBK269487C], the “% of control remaining” value was 15.6204%. In the case of `Cc1ccc(Cl)cc1N1CCN(S(=O)(=O)N(C)C)CC1` [CBK270284], the “% of control remaining” value is on record as 142.951%.

Take `Cc1ccc(S(=O)(=O)NCCC(=O)NO)cc1` [CBK023472]: the “% of control remaining” value was determined as 92.1444%. For the compound `O=C(Cn1c2ccccc2c2ccccc21)Sc1nc2ccccc2[nH]1` [CBK263788], the “% of control remaining” value is 100%. On to `COc1ccc(C(C)NC(=O)CCn2ccc3ccncc32)cc1` (stereo not shown) [CBK284798], for which the “% of control remaining” value was 139.638%. `CN1CCN(c2nccnc2-c2ccco2)CC1` [CBK038050]: the “% of control remaining” value turned out to be 157.656%. To `NC(=O)COc1ccc(/C=C/c2cc(C(F)(F)F)[nH]c(=O)n2)cc1` [CBK269475] belongs 146.026%; to `COc1ccc(-c2cc(Nc3ccc(OC)cc3OC)ncn2)cc1` [CBK090763], 90.3463%. For the compound `COc1ccccc1C1(NC(=O)c2c(C)noc2C)CCCC1` [CBK283644], the “% of control remaining” value was 121.091%. Consider `COc1cc(C)nc(NN)n1` [CBK262078], for which the “% of control remaining” value is listed as 101.049%. In the case of `O=C(NCCc1c[nH]cn1)N1CCN(c2ccc(F)cc2)CC1` [CBK156394] it was 117.129%. As for `CC(C)(C)c1cc(-c2nc3ccccc3[nH]2)c(O)c(-c2nc3ccccc3[nH]2)c1` [CBK266084], the “% of control remaining” value came to 122.82%. For the compound `CCCNC(=O)Cn1cnc2sc(C(=O)Nc3ccc(OCC)cc3)c(C)c2c1=O` [CBK071920], the “% of control remaining” value is on record as 120.748%.

Take `NS(=O)(=O)c1ccc(NC(=S)NNS(=O)(=O)c2ccc(Br)cc2)cc1` [CBK266928]: the “% of control remaining” value is given as 127.179%. `O=C(NCc1cccc2ccccc12)N1CCCC(CO)C1` (stereo not shown) [CBK156035]: the “% of control remaining” value is listed as 114.065%. In the case of `CCOC(=O)C1=CC2C(=NC3=C2CCCC3)C=C1` (stereo not shown) [CBK009652] it was 115.954%; in that of `COCCN(CC1CC1)C(=O)NCc1cccc(Cl)c1` [CBK304368], 99.8867%. To `CC(=O)Nc1ccc(CNC(=O)CN(C)Cc2cc(C)on2)cc1` [CBK307042] belongs 129.099%.

As for `Cc1[nH]c2ccccc2c1C(c1ccccc1OCC(=O)O)c1c(C)[nH]c2ccccc12` [CBK266038], the “% of control remaining” value was determined as 157.28%.

For the compound `CN(C)c1ccc(-c2nccnc2NCc2ccc(S(C)(=O)=O)cc2)cc1` [CBK036902], the “% of control remaining” value came out at 108.788%.

Take `Nc1ncc(-c2ccc(C(=O)N3CCOCC3)cc2)nc1C(=O)NC1CCCCC1` [CBK149160]: the “% of control remaining” value is recorded as 111.583%. In the case of `COc1ccccc1CN(C)C(=O)Nc1ccc(S(N)(=O)=O)cc1` [CBK306026] it was 148.556%; in that of `CC(C)C[C@@H]1N[C@H](C(=O)NCc2cccnc2)Cc2c[nH]c3cccc1c23` [CBK289418], 102.255%. To `COc1ccc(OC)c(CN2CCN(CCCc3ccccc3)CC2)c1` [CBK264304] belongs 98.2955%; to `COc1cccc(NC(=O)c2cnc(-c3ccc(Cl)cc3)c(-c3ccco3)c2)c1OC` [CBK037428], 146.116%; to `Cc1nn(Cc2cccc(C(=O)Nc3ccc(S(=O)(=O)N4CCCCC4)cc3)c2)c(C)c1Cl` [CBK265815], 114.638%. As for `O=C(COc1ccc(S(=O)(=O)N2CCc3ccccc32)cc1Cl)NCc1ccco1` [CBK268293], the “% of control remaining” value stood at 137.993%.

In the case of `O=C(NCCN1CCc2ccccc2C1)C1CCCCC1` [CBK305049], the “% of control remaining” value was determined as 115.121%.

Turning to `COc1cc2c(cc1NC(=O)CSc1nc3ccccc3[nH]1)oc1ccccc12` [CBK265153], the “% of control remaining” value was 186.595%. Consider `CCC1CCCCN1C(=O)c1ccc(C)c(OC)c1` (stereo not shown) [CBK081557], for which the “% of control remaining” value turned out to be 104.337%. In the case of `Cc1ccnc(NCC2CCN(CC(=O)Nc3cc(C)no3)C2)c1` (stereo not shown) [CBK306121], the “% of control remaining” value is listed as 114.26%.

In the case of `CC(=O)N[C@H](Cc1c[nH]c2ccccc12)C(=O)N1CCN(c2ccc(C(F)(F)F)cc2)CC1` [CBK091314], the “% of control remaining” value worked out at 113.518%. For `O=C(C1CCCC1)N1C[C@@H]2CCCCN(Cc3cccnc3)[C@@H]2C1` [CBK285492], the “% of control remaining” value is listed as 130.499%. For `CC(C)Nc1cc(SCc2ccc(F)cc2)ncn1` [CBK107158], the “% of control remaining” value was found to be 100.62%.

As for `CCOc1ccc(NCc2ccccc2NS(=O)(=O)c2ccc(C)cc2)cc1` [CBK056876], the “% of control remaining” value is 83.1157%. With `CCC(CO)Nc1cncc(-c2ccccc2CO)n1` (stereo not shown) [CBK065775], the “% of control remaining” value amounted to 147.779%. As to `COc1ccccc1CNc1ccc(S(N)(=O)=O)cc1` [CBK288476], the “% of control remaining” value turned out to be 82.2703%. Turning to `CC(C)Cc1cc(CNC(=O)Nc2cc(-c3cccnc3)nn2C)no1` [CBK307048], the “% of control remaining” value stood at 142.116%.

In the case of `COCC(=O)N1CCCC(c2nc(C)n3c(C)csc23)C1` (stereo not shown) [CBK285214], the “% of control remaining” value amounted to 128.456%. In the case of `Cc1cc(C(=O)N2CCC3(C/C=C/CCOc4ccccc4C(=O)NCCCNC3=O)CC2)no1` [CBK292155], the “% of control remaining” value is 103.005%. For `CC(=O)Nc1sc(/C(C#N)=C/c2cccc(Oc3ccccc3)c2)nc1-c1ccc(C)cc1` [CBK264895], the “% of control remaining” value is 115.501%. For `OCCN1CCN(Cc2nc(O)c3ccccc3n2)CC1` [CBK266089], the “% of control remaining” value was 165.345%. In the case of `O=C(Nc1ccc2c(c1)CS(=O)(=O)C2)c1cccs1` [CBK057563] it was 112.911%.
